Measured values taken from PMC12040169 (PLOS Biology, 2025).
The list shows a part of the results.

Tested on: T1, CTL2-GFP (C. trachomatis L2/434/Bu, GFP-expressing)
T1 construct: L2/434/Bu, GFP-expressing
Set-up: species or system HeLa; Intracellular C. trachomatis growth in HeLa cells, bulk GFP fluorescence relative to DMSO
Details: bulk GFP, single well; 28.5 h, 10 µM; inhibitor

Compound	% of control remaining
Cc1ccc(-c2csc3c(=O)[nH]c(N4CCCC(C(=O)NCC(N)=O)C4)nc23)cc1 (stereo not drawn) [CBK215542]	155.72%
CN1CCC(N(C)C(=O)NCCCN2CCCC2=O)C1 (stereo not drawn) [CBK156021]	103.282%
O=C(O)CSCc1ccc(C(=O)O)o1 [CBK263267]	131.862%
Cc1ccc2c(c1)C1(CCN(CC3CC3)CC1)NC(=O)C2 [CBK040217]	85.5253%
O=C(NCc1cccnc1)c1ccccc1-n1cccc1 [CBK149602]	96.2862%
CC(C)(C)OC(=O)N1CCC(Oc2nccc3c2ccn3Cc2ccc(S(C)(=O)=O)cc2)CC1 [CBK132881]	97.887%
Cc1cc(C)cc(OCC(=O)NNC(=O)CN2C(=O)c3ccccc3C2=O)c1 [CBK262394]	132.702%
O=[N+]([O-])c1ccc(S(=O)(=O)Nc2nnc(Cc3ccc(Cl)cc3)s2)cc1 [CBK200046]	116.559%
Cc1ncsc1CCOc1nc2ccccc2nc1NC(C)C [CBK115736]	81.8303%
NS(=O)(=O)c1ccc(NC(=S)Nc2nn(Cc3ccc(Cl)c(Cl)c3)cc2Br)cc1 [CBK267082]	80.8708%
Cc1ccnc(NC(=O)c2ccccc2)c1 [CBK004031]	123.489%
COc1ccc(-c2nnc(SCC(=O)NC(=O)c3ccccc3)n2CC(C)C)cc1 [CBK297527]	140.693%
O=C(c1ccc(-c2nccnc2NCc2cccs2)cc1)N1CCOCC1 [CBK037059]	105.57%
O=S(=O)(Cc1ccccc1)NCc1ccccn1 [CBK262241]	114.573%
CS(=O)(=O)c1ccc(Cn2cc(CN3CCC(Sc4ccccn4)CC3)nn2)cc1 [CBK149475]	111.476%
O=[N+]([O-])c1ccccc1S(=O)(=O)NCCSCc1ccc(Cl)c(Cl)c1 [CBK058810]	98.0603%
Cc1nc2c(OCC3CCCCC3)cccn2c1N(C)CC1CC1 [CBK147279]	52.8208%
COc1cc(-c2cc(-c3ccccc3)nc(SCC(=O)O)c2C#N)cc(OC)c1OC [CBK131867]	94.6237%
CN(c1ccc(C(=O)Nc2cccc(C(=O)O)c2)cc1)S(=O)(=O)c1ccccc1 [CBK265729]	199.636%
Cc1ccc2oc3c(c(=O)c2c1)C(c1ccc(OCC(N)=O)cc1)N(Cc1ccc2c(c1)OCO2)C3=O (stereo not drawn) [CBK267189]	169.542%
Cc1nc(S(=O)(=O)Cc2nccn2C)n(CC2CCCO2)c1C (stereo not drawn) [CBK304012]	105.893%

A draw from above in order of molecular weight, high to low.
Compound	% of control remaining
CC(C)(C)OC(=O)N1CCC(Oc2nccc3c2ccn3Cc2ccc(S(C)(=O)=O)cc2)CC1 [CBK132881]	97.887%
O=[N+]([O-])c1ccc(S(=O)(=O)Nc2nnc(Cc3ccc(Cl)cc3)s2)cc1 [CBK200046]	116.559%
Cc1cc(C)cc(OCC(=O)NNC(=O)CN2C(=O)c3ccccc3C2=O)c1 [CBK262394]	132.702%
Cc1ncsc1CCOc1nc2ccccc2nc1NC(C)C [CBK115736]	81.8303%
